Source: PMC10076223
These are yes or no findings as the source states them, for the method shown. Binding seen in cells or lysates may run through a third protein. Some binding calls cover weakened binding; strength is not graded here.

Protein sequences, listed by entry. Tags and fused reporters are not part of them.
UniProt Q91YE6: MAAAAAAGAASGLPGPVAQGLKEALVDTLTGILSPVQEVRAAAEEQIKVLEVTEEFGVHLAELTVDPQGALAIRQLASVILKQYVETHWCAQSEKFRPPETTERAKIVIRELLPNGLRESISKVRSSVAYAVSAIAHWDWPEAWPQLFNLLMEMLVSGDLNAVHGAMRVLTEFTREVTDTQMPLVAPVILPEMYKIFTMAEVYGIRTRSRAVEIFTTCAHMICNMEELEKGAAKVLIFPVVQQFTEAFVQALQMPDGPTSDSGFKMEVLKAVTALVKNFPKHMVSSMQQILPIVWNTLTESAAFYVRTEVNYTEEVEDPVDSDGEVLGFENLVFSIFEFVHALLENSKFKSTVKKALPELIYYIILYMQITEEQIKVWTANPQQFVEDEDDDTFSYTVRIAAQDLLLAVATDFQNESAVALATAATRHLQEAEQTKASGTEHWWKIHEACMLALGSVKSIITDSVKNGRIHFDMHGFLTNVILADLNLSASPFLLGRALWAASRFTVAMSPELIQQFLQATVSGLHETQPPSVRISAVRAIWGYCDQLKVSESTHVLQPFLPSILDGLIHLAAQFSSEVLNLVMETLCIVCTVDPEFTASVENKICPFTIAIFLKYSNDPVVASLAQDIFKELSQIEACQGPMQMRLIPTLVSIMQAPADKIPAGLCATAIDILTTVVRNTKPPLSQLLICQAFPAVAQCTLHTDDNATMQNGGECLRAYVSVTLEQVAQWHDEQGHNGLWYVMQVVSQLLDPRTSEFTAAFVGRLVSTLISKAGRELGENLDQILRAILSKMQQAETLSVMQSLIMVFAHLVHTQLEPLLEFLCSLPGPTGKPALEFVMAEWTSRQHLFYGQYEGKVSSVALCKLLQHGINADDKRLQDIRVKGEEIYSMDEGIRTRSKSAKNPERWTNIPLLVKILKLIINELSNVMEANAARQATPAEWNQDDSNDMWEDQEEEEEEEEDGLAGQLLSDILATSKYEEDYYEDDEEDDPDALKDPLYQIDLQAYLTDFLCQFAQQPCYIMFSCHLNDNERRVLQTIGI
UniProt Q9ER71: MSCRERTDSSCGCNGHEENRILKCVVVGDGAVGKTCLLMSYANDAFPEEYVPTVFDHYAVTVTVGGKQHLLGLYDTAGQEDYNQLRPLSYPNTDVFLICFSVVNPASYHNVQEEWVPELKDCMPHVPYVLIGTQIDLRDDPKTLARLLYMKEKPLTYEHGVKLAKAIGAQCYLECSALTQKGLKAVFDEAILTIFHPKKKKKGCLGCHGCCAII

Target: IPO9 (mouse (endogenous in EPCAM− skin SCC tumour cells)) (UniProt Q91YE6)
Assay: co-IP; anti-IPO9 (A305-475A, Bethyl) or rabbit IgG control immunoprecipitation from 1 mg precleared lysate of EPCAM− cells expressing HA-tagged RHOJ, 12 h after cisplatin/5FU; Dynabeads Protein G; washes in NETN buffer with 900 mM NaCl; western blot with anti-HA

3HA-tagged RHOJ (from UniProt Q9ER71 1-214)
binding: binds
